Laboratory results reported in the supplement of paper PMC12823440, “Inhibitors supercharge kinase turnover through native proteolytic circuits” (Nature, 2025).
Counter-ions that a name gives are not always drawn. Some of the results follow. The calls rarely recur for the same compound in another form.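 Kinases were expressed as nanoluciferase fusions in K562 cells and luminescence was read every 4 h between 2 and 18 h as percent of control, DMSO set to 100% and a positive control to 0%. A time point counts as decreased when the signal drops significantly (2 sigma). The hit call is the authors' own, does not follow from the count of time points alone, and its rule is not shown.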

The chains behind the UniProt entries cited, without tags or fusion partners.
UniProt P29317, whole entry: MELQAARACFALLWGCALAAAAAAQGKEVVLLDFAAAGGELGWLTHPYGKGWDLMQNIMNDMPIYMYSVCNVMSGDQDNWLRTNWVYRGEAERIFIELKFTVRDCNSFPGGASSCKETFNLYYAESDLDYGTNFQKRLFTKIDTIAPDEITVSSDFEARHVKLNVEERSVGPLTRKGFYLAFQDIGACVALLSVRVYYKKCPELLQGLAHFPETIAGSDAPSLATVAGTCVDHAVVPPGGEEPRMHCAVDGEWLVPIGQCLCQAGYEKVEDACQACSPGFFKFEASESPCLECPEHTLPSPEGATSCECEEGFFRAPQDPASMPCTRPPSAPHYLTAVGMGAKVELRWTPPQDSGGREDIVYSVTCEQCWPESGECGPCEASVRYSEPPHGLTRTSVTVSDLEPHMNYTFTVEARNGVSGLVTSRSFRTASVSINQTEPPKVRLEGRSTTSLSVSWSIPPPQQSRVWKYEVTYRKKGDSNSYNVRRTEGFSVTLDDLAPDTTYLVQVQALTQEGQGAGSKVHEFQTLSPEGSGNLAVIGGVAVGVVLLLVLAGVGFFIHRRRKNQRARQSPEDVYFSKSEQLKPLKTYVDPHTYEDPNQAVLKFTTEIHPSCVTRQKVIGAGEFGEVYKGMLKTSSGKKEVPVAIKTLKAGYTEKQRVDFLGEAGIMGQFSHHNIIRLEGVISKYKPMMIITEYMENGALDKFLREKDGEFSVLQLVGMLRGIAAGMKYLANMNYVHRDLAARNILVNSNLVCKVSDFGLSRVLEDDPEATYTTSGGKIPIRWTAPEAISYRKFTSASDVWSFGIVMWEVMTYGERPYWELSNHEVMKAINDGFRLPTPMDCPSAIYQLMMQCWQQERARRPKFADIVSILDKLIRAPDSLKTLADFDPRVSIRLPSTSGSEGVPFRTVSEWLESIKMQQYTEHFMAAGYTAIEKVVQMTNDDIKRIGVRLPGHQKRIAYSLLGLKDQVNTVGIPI
UniProt P21860, whole entry: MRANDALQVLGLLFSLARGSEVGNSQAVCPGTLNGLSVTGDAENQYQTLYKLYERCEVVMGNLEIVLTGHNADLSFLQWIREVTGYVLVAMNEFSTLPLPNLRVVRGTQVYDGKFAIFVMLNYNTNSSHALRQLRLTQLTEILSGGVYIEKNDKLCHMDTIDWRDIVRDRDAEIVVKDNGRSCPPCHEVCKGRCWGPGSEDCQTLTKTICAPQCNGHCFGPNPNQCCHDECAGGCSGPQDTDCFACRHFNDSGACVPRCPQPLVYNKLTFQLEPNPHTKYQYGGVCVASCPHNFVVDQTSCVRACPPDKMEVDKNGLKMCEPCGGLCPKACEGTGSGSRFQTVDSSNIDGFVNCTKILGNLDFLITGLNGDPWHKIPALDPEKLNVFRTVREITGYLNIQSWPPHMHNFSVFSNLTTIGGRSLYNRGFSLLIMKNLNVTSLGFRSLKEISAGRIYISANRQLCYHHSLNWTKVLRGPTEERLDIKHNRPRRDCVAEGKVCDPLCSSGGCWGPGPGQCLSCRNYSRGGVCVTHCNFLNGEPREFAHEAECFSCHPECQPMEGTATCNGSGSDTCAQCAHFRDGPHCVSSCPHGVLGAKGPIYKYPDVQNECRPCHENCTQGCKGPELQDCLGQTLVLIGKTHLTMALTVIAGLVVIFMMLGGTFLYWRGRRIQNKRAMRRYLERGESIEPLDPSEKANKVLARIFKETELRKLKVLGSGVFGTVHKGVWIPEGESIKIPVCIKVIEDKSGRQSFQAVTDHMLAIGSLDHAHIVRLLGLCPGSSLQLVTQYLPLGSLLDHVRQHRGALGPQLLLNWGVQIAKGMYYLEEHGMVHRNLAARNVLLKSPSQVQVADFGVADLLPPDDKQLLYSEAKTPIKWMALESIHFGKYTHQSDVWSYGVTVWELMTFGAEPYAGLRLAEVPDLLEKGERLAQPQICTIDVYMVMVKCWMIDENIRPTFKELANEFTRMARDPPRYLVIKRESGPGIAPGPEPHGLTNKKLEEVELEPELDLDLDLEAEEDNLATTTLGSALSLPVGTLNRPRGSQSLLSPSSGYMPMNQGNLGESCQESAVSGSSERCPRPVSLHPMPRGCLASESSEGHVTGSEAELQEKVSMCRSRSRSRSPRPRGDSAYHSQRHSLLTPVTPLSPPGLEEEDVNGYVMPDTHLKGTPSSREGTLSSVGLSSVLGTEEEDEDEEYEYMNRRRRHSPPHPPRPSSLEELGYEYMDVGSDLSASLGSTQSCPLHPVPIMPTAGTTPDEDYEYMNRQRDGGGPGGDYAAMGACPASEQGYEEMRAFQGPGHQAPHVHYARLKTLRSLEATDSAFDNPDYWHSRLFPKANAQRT
UniProt Q15303, whole entry R711C: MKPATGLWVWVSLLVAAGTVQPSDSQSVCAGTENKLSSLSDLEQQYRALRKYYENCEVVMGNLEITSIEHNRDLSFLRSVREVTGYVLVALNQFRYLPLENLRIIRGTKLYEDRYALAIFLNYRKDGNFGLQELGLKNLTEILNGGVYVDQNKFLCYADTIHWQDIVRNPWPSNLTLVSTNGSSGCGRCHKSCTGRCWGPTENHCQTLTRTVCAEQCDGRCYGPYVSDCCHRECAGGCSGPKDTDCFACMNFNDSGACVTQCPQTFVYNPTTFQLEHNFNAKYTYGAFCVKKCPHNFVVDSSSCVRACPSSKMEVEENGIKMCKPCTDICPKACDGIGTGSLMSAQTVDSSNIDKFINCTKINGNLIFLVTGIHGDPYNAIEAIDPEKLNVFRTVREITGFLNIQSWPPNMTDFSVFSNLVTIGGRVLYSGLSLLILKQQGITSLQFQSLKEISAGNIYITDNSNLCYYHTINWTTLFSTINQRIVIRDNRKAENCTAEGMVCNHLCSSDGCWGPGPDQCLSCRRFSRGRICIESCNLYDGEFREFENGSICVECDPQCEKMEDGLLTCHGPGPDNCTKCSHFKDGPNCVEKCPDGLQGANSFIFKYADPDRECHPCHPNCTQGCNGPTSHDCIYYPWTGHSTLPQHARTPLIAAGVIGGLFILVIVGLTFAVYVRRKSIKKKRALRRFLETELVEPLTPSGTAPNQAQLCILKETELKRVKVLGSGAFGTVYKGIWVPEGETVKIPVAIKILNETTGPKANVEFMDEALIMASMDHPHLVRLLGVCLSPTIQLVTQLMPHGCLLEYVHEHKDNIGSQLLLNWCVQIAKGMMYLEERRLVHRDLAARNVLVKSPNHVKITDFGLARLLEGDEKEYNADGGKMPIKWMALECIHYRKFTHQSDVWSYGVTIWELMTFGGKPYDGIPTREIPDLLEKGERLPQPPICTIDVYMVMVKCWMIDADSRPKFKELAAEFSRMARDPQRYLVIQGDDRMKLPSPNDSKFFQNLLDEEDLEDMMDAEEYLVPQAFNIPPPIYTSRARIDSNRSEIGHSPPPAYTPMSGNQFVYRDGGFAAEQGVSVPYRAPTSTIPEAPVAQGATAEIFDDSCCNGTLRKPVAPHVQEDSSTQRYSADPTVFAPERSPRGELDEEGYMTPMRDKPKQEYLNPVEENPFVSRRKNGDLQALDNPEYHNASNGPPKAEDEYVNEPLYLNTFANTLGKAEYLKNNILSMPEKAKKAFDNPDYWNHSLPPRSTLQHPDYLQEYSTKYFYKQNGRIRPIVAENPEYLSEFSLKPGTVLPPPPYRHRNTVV

What was measured:
Test in all cases: kinase-Nluc reporter destabilization hit call (1 = scored as downregulated) (binary); higher = compound decreases kinase abundance
Details in all cases: K562; 2-18 h
EPHA2 = EPHA2 (UniProt P29317)
ERBB3 = ERBB3 (UniProt P21860)
[1] = molecular target: ERBB4_R711C (clone: ERBB4_mut) (UniProt Q15303)

Measured: kinase-Nluc reporter destabilization hit call

O=C1c2ccccc2-c2n[nH]c3cccc1c23 (10 µM)
inactive: EPHA2 = 0 | ERBB3 = 0 | [1] 0

Cn1c(=O)c(Oc2ccc(F)cc2F)cc2cnc(NC3CCOCC3)nc21 [R1487 (Hydrochloride)] (10 µM)
inactive: EPHA2 = 0 | ERBB3 = 0 | [1] 0

O=c1oc2c(O)c(O)cc3c(=O)oc4c(O)c(O)cc1c4c23 [Ellagic acid] (10 µM)
inactive: EPHA2 = 0 | ERBB3 = 0 | [1] 0

O=c1c(O)c(-c2ccc(O)c(O)c2)oc2cc(O)cc(O)c12 [Quercetin (dihydrate)] (10 µM)
inactive: EPHA2 = 0 | ERBB3 = 0 | [1] 0

O=c1oc2ccccc2c(O)c1Cc1c(O)c2ccccc2oc1=O [Dicoumarol] (10 µM)
inactive: EPHA2 = 0 | ERBB3 = 0 | [1] 0

CCN1CCN(c2ccc(Nc3cc(N(C)C(=O)Nc4c(Cl)c(OC)cc(OC)c4Cl)ncn3)cc2)CC1 [Infigratinib] (10 µM)
inactive: EPHA2 = 0 | ERBB3 = 0 | [1] 0

O=S(=O)(NCCNC/C=C/c1ccc(Br)cc1)c1cccc2cnccc12 [H-89 (dihydrochloride)] (10 µM)
inactive: EPHA2 = 0 | ERBB3 = 0 | [1] 0

COc1cc2nc(C)nc(N[C@H](C)c3cc(N)cc(C(F)(F)F)c3)c2cc1O[C@H]1CCOC1 (10 µM)
inactive: EPHA2 = 0 | ERBB3 = 0 | [1] 0

O=C1Cc2c([nH]c3ccc(Br)cc23)-c2ncccc2N1 [1-Azakenpaullone] (10 µM)
inactive: EPHA2 = 0 | ERBB3 = 0 | [1] 0

Oc1ccc(-c2nc(-c3ccc(F)cc3)c(-c3ccncc3)[nH]2)cc1 (2.5 µM)
inactive: EPHA2 = 0 | ERBB3 = 0 | [1] 0

Cc1c[nH]c2nccc(Oc3c(F)cc(Nc4cc(Cl)nc(N)n4)cc3F)c12 (10 µM)
inactive: EPHA2 = 0 | ERBB3 = 0 | [1] 0

Cc1cc(N2CCOCC2)cc2[nH]c(-c3c(NC[C@@H](O)c4cccc(Cl)c4)cc[nH]c3=O)nc12 (10 µM)
inactive: EPHA2 = 0 | ERBB3 = 0 | [1] 0

C=CC(=O)Nc1ccc2ncnc(Nc3cccc(Br)c3)c2c1 (10 µM)
inactive: EPHA2 = 0 | ERBB3 = 0 | [1] 0

Nc1ncnc2c1c(-c1ccc(Oc3ccccc3)cc1)cn2C1CCCC1 (2.5 µM)
inactive: EPHA2 = 0 | ERBB3 = 0 | [1] 0

Cc1nc(N)sc1-c1ccnc(Nc2ccc(N3CCOCC3)cc2)n1 (10 µM)
inactive: EPHA2 = 0 | ERBB3 = 0 | [1] 0

O=C1NCCc2[nH]c(-c3ccnc(-c4cnc5ccccc5c4)c3)cc21 (10 µM)
inactive: EPHA2 = 0 | ERBB3 = 0 | [1] 0

CCN(CC)CCCCNc1ncc2cc(-c3c(Cl)cccc3Cl)c(NC(=O)NC(C)(C)C)nc2n1 (2.5 µM)
inactive: EPHA2 = 0 | ERBB3 = 0 | [1] 0

Cc1c(C(=O)N2CCOc3ccc(-c4ccc(N)nc4)cc3C2)ccc(S(C)(=O)=O)c1F (10 µM)
inactive: EPHA2 = 0 | ERBB3 = 0 | [1] 0

N#Cc1ccc2[nH]c(O)c(-c3ccc(CN4CCOCC4)cn3)c2c1 (10 µM)
inactive: EPHA2 = 0 | ERBB3 = 0 | [1] 0

O=c1c(-c2ccc(O)cc2)coc2cc(O)cc(O)c12 [Genistein] (10 µM)
inactive: EPHA2 = 0 | ERBB3 = 0 | [1] 0

CN(c1ncccc1CNc1nc(Nc2ccc3c(c2)CC(=O)N3)ncc1C(F)(F)F)S(C)(=O)=O (2.5 µM)
inactive: EPHA2 = 0 | ERBB3 = 0 | [1] 0

CCc1nc(-c2cccc(C)c2)c(-c2ccnc(NC(=O)c3ccccc3)c2)s1 (10 µM)
inactive: EPHA2 = 0 | ERBB3 = 0 | [1] 0

CCN(CCO)CCCOc1ccc2c(Nc3cc(CC(=O)Nc4cccc(F)c4)[nH]n3)ncnc2c1 [Barasertib-HQPA] (10 µM)
inactive: EPHA2 = 0 | ERBB3 = 0 | [1] 0

CC(=O)NCC(=O)N1[C@@H]2CC[C@H]1c1ccc(Nc3ncc(C(F)(F)F)c(NC4CCC4)n3)cc12 (2.5 µM)
inactive: EPHA2 = 0 | ERBB3 = 0 | [1] 0

CNc1nc(-c2ccc3c(N)n[nH]c3c2)cc(N2C[C@@H](C(=O)NC3CCCCC3)CC[C@H]2C)n1 (10 µM)
inactive: EPHA2 = 0 | ERBB3 = 0 | [1] 0

CNC(=O)c1ccccc1Nc1nc(Nc2ccc(N3CCOCC3)cc2OC)ncc1Cl (2.5 µM)
inactive: EPHA2 = 0 | ERBB3 = 0 | [1] 0

COc1cc(C)c(Sc2cnc(NC(=O)c3ccc(CNC(C)C(C)(C)C)cc3)s2)cc1C(=O)N1CCN(C(C)=O)CC1 (configuration not stated) (2.5 µM)
inactive: EPHA2 = 0 | ERBB3 = 0 | [1] 0

Reprinted at random: 2 records from the list
O=c1oc2ccccc2c(O)c1Cc1c(O)c2ccccc2oc1=O [Dicoumarol] (10 µM)
inactive: EPHA2 = 0 | ERBB3 = 0 | [1] 0

Cc1nc(N)sc1-c1ccnc(Nc2ccc(N3CCOCC3)cc2)n1 (10 µM)
inactive: EPHA2 = 0 | ERBB3 = 0 | [1] 0

Later entries:

Cc1ccc(NC(=O)Nc2nnc(Sc3ncnc4cc(OCCCN5CCOCC5)ccc34)s2)cc1 (10 µM)
inactive: EPHA2 = 0 | ERBB3 = 0 | [1] 0

Nc1ncnc2c1c(-c1cccc(OCc3ccccc3)c1)cn2C1CC(CN2CCCC2)C1 (configuration not stated) (2.5 µM)
inactive: EPHA2 = 0 | ERBB3 = 0 | [1] 0

CCOc1ccn(-c2ccc(F)cc2)c(=O)c1C(=O)Nc1ccc(Oc2ccnc(N)c2Cl)c(F)c1 (10 µM)
inactive: EPHA2 = 0 | ERBB3 = 0 | [1] 0

COc1cc(C=C(C#N)C(N)=O)cc(CSc2nc3ccccc3s2)c1O (10 µM)
inactive: EPHA2 = 0 | ERBB3 = 0 | [1] 0

Cc1cc(C)c(/C=C2\C(=O)Nc3ccccc32)[nH]1 [Semaxinib] (10 µM)
inactive: EPHA2 = 0 | ERBB3 = 0 | [1] 0

N#CC(=Cc1ccc(O)c(O)c1)C(=O)NCc1ccccc1 (mixture of isomers) (10 µM)
inactive: EPHA2 = 0 | ERBB3 = 0 | [1] 0

CN1CCC(Nc2ncc3ncnc(Nc4ccc(F)c(Cl)c4)c3n2)CC1 [Falnidamol] (10 µM)
inactive: EPHA2 = 0 | ERBB3 = 0 | [1] 0

CCN(CC)CCCCNc1ncc2cc(-c3cc(OC)cc(OC)c3)c(NC(=O)NC(C)(C)C)nc2n1 (10 µM)
inactive: EPHA2 = 0 | ERBB3 = 0 | [1] 0

COc1ccc(C=C(C#N)c2cccnc2)cc1OC (10 µM)
inactive: EPHA2 = 0 | ERBB3 = 0 | [1] 0

CCOc1cc2ncc(C#N)c(Nc3ccc(OCc4ccccn4)c(Cl)c3)c2cc1NC(=O)/C=C/CN(C)C [Neratinib] (10 µM)
inactive: EPHA2 = 0 | ERBB3 = 0 | [1] 0

COc1ccc2c(NC(=O)Nc3cccc(C(F)(F)F)n3)ccnc2c1 (10 µM)
inactive: EPHA2 = 0 | ERBB3 = 0 | [1] 0

C[C@]1(O)C[C@@H](c2nc(-c3ccc4ccc(-c5ccccc5)nc4c3)c3c(N)nccn32)C1 [Linsitinib] (2.5 µM)
inactive: EPHA2 = 0 | ERBB3 = 0 | [1] 0
